Consider three molecules from publication PMC8169937.

By UniProt entry, the sequences of proteins in these tests, tags left out.
UniProt O09106: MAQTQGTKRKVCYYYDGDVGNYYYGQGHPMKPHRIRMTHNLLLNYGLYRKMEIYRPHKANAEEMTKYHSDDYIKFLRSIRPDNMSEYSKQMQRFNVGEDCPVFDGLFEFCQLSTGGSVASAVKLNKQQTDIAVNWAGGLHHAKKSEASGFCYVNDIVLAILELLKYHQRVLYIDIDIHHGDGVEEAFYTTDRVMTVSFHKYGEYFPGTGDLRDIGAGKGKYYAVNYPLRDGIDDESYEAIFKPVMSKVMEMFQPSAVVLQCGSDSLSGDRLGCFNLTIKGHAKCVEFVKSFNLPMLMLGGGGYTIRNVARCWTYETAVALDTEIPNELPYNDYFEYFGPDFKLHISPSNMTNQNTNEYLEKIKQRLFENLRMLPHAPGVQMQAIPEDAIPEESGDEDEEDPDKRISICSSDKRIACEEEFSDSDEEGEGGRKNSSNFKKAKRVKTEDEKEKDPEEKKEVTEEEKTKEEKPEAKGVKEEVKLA
UniProt P70288: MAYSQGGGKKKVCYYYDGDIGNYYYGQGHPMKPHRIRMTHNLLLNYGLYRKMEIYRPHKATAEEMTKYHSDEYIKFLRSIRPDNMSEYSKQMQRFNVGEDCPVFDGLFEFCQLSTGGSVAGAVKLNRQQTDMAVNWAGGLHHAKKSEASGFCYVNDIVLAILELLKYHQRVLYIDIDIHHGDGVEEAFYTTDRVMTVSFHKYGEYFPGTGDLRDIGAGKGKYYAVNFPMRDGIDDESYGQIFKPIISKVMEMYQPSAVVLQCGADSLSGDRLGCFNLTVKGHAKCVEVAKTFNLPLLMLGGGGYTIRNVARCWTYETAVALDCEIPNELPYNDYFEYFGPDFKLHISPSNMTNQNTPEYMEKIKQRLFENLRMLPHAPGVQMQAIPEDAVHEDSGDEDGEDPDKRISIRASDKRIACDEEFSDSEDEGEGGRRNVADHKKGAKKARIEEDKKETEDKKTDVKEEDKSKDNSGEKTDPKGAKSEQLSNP

B1: terminal deoxynucleotidyltransferase-interacting factor 1 (TDIF1) (protein, UniProt Q99LB0 1-328)
chain: MGATGDTEQPRGPGGAERGGLELGDAGAAGQPVLTNPWNIMIKHRQVQRRGRRSQMTTSFTDPAISMDLLRAVLQPSINEEIQGVFNKYMKFFQKAALNVRDNVGEEVDAEQLIQEACRSCLEQAKLLFSDGEKVIPRLAHELPGIKRGRQAEEESHRGSPIPKKRKGRPPGHVLSNDRAAAGMVWKQKSCEPIRREGPKWDPARLNESTTFVLGSRANKALGMGGTRGRIYIKHPHLFKYAADPQDKHWLAEQHHMRATGGKMAYLLIEEDIRDLAASDDYRGCLDLKLEELKSFVLPSWMVEKMRKYMETLRTENEHRAAEAPPQT

These are yes or no findings as the source states them, for the method shown. In cells and extracts the contact can be indirect. Some binding calls cover weakened binding; strength is not graded here.

This experiment concerns the target T1, ZFP541 (mouse (endogenous in testis)) (UniProt Q0GGX2).
T1 sequence: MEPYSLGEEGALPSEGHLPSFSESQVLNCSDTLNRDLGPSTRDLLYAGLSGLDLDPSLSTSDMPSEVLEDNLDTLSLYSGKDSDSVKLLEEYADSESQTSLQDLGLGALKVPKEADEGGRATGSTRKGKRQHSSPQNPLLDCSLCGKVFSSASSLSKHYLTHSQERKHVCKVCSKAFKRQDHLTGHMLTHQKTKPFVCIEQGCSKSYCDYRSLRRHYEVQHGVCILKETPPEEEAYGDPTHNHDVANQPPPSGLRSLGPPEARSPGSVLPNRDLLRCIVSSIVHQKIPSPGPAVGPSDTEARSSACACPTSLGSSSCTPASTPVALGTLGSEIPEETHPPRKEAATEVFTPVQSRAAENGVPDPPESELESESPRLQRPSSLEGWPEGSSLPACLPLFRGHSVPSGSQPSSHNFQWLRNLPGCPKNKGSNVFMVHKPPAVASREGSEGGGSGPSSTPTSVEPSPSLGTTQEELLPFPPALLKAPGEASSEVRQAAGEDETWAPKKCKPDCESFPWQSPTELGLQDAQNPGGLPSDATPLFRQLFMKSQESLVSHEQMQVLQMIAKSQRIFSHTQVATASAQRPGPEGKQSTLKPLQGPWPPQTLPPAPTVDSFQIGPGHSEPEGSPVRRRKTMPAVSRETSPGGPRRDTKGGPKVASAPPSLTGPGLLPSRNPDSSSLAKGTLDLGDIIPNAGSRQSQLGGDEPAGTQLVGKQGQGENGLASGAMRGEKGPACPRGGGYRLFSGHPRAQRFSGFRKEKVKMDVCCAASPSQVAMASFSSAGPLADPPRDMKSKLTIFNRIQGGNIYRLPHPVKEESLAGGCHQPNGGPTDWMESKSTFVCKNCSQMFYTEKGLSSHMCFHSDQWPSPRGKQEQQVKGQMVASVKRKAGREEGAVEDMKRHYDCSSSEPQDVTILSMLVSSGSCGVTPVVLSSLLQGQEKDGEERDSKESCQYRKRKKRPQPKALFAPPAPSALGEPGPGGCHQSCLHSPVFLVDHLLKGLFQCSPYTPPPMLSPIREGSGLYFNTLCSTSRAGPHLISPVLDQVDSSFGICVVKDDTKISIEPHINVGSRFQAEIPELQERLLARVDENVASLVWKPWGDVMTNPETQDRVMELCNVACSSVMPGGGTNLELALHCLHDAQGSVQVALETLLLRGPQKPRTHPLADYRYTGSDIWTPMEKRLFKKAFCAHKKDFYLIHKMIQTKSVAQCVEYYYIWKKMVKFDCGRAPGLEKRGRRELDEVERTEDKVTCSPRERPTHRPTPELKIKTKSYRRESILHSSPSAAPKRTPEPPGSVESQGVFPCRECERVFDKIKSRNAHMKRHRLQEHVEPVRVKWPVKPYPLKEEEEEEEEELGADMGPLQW
Nature of the experiment: co-IP; endogenous ZFP541 or KCTD19 immunoprecipitated with affinity-purified rabbit antibodies crosslinked to protein A-Dynabeads from chromatin extracts of WT mouse testes; beads washed with low salt extraction buffer; immunoblot. For orientation: Immunoblotting shows a protein as a band on a membrane.
In the case of “HDAC1 (from UniProt O09106 1-482) (enzyme)”, the binding entry is “binds”.

Consider “HDAC2 (from UniProt P70288 1-488) (enzyme)”, for which the binding entry is “binds”.

B1: the binding result is reported as “binds”.
